# Source: article PMC11957695
# By UniProt entry, the sequences of proteins in these tests, tags left out. Where a name states a change or a piece, a line headed by the entry shows the natural chain unless it says otherwise. Residues count along the entry.
# UniProt O00469: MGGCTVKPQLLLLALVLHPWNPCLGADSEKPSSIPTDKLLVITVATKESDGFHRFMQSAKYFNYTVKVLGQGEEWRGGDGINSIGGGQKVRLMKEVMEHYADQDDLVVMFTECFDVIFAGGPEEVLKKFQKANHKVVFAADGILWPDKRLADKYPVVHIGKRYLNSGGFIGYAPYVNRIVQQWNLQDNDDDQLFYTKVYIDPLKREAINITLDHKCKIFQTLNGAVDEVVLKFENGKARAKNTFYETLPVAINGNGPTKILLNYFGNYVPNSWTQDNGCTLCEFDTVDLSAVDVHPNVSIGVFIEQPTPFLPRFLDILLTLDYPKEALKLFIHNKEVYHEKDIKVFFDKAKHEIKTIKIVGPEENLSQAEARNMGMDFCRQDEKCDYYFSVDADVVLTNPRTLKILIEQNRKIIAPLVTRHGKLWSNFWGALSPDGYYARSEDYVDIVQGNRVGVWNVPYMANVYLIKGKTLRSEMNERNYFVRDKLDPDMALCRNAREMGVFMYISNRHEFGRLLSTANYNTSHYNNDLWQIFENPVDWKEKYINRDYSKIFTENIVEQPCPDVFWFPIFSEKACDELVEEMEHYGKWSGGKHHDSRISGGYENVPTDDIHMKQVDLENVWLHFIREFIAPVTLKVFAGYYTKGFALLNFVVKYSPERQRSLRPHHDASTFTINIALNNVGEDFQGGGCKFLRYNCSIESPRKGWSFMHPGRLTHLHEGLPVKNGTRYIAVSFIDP
# UniProt Q96AY3, residues 27-582: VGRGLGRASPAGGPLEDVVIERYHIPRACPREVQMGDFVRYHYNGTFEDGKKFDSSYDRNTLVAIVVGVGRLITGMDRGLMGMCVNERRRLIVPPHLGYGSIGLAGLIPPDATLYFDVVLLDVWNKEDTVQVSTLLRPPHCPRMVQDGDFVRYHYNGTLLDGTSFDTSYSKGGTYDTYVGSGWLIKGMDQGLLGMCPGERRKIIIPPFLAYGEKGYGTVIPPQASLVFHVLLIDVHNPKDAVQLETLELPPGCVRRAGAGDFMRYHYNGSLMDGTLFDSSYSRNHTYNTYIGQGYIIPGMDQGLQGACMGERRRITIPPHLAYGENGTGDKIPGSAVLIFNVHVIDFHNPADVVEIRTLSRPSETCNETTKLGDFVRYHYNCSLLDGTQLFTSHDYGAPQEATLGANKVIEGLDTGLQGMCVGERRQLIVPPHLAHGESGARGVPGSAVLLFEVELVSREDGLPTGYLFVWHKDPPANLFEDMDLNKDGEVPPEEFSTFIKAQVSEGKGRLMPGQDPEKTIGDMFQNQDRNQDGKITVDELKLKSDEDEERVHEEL
# Results are given in words; binding and its absence hold for the method and conditions named. In cells and extracts the contact can be indirect. Binding can be weak; no strength is given.
# Target: Flag-tagged lysyl hydroxylase 2 (LH2) (human) (UniProt O00469)
# Assay: co-IP; H157 cells transfected with Flag-tagged LH2, LH2-Flag as bait; RIPA lysate, primary antibody and protein G agarose beads at 4°C overnight, 4 washes with RIPA; Western blot
substance,measurement,value
FKBP65 (from UniProt Q96AY3 27-582),binding,binds
